Library screening results

The chains behind the UniProt entries cited, without tags or fusion partners.
UniProt E9BF75, entry or part of it: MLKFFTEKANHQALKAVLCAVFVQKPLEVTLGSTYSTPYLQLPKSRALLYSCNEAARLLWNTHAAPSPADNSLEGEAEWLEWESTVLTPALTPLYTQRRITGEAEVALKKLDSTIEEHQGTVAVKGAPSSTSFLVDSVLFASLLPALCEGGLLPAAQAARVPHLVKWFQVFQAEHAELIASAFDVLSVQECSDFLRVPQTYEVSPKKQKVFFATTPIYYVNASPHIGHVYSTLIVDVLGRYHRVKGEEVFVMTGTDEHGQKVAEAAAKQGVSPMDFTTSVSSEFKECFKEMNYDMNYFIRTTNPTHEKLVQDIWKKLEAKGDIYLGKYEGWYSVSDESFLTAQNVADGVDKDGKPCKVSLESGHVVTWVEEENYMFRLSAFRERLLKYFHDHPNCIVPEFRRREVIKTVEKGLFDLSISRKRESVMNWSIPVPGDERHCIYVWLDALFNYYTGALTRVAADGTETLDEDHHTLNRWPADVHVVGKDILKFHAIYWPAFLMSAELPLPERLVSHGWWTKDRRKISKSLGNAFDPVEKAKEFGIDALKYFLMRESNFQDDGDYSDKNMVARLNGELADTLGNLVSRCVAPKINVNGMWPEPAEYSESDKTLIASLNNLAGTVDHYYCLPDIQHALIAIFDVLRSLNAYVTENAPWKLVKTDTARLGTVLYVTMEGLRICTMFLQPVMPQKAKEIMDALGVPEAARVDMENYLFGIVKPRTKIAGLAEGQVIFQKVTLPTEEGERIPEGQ

The values are deposited in ChEMBL (CHEMBL3988442, “University of Dundee, Small-Polar-MMV Screening Library” (2021)).

A: 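Assay on Mycobacterium tuberculosis, filed only as a heat shock assay from Cornell; the read-out is not stated. The concentration is filed as 10 mM, unlikely as a test dose, so the dose is not known. Higher reads as stronger inhibition (inferred: compounds with an IC50 in retests scored well above the rest). Of about 69,000 compounds tested this way, about 930 (1.4%) reached 50% or more in at least one test.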
B: 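Methionyl-tRNA synthetase (putative), Leishmania donovani (UniProt E9BF75). Primary screen of methionyl-tRNA synthetase; the read-out is not stated. The test concentration is not given. The values are filed as inhibition. Size under these conditions: about 68,000 compounds, about 24 of them at 50% or above in at least one test.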
C: 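Whole-cell assay for inhibitors of Mycobacterium tuberculosis growth, labelled Cornell in the record; the read-out is not stated. The concentration is filed as 10 mM, unlikely as a test dose, so the dose is not known. The record gives no direction; compounds strong in two other growth screens of this library score well above the rest, so higher reads as stronger inhibition. Of about 53,000 compounds tested this way, about 900 (1.7%) reached 50% or more in at least one test.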

All values are in %.
The controls that fix the scale are not given in the record; negative values are as filed.
This is an unselected part of the compounds tested.
A dash means the value is not listed here; it may have been measured.

| Compound | A | B | C |
|---|---|---|---|
| `CNS(=O)(=O)c1ccc(C(=O)NCc2ccnc(OC)c2)cc1` | 6.306 | 10.97 | 3.013 |
| `CC(C)OCC(=O)Nc1ccc(Oc2ccc3c(c2)OCO3)nc1` | 3.681 | 16.49 | 31.06 |
| `Cc1nc(CN2CCCN(CC(=O)N(C)C(C)(C)C#N)CC2)no1` | -24.57 | 2.717 | -27.86 |
| `Cc1cc(CN2C[C@@H]3CCCO[C@@H]3[C@H](NS(C)(=O)=O)C2)no1` | - | 8.148 | - |
| `CCc1nc(CNC(=O)c2ccc(C(C)N3CCCCC3)o2)cc(=O)[nH]1` (centres undefined) | -20.78 | 1.344 | 15.08 |
| `CC(C)CCOc1ccc(C(C)NC(=O)Cn2cccnc2=O)cc1` (centres undefined) | 7.857 | 14.71 | - |
| `Cc1noc(CN2CCN(CC(C)O)CC2)n1` (centres undefined) | 15.97 | 16.19 | -30.59 |
| `Cn1c(Nc2cn[nH]c2)c(C#N)c(=O)n(C)c1=O` | -12.27 | 3.346 | -31.21 |
| `CCn1nc(C)c2nnn(CC(=O)Nc3ccccc3F)c(=O)c21` | 11.83 | -3.769 | - |
| `O=C(c1cn(-c2ccccc2Cl)nn1)N1CCCSCC1` | 9.975 | 13.01 | 30.49 |
| `CC(C)(C)C(=O)NS(=O)(=O)c1ccc(C#N)cc1C(F)(F)F` | 10.58 | 11.11 | 47.7 |
| `CNc1nc2c(s1)C(c1ccc(Cl)cc1Cl)CC(=O)N2` (centres undefined) | 5.849 | 10.2 | 15.33 |
| `COc1ccc(S(=O)(=O)NCC(N)c2ccccc2)c(C)c1.Cl` (centres undefined) | -17.96 | - | - |
| `COc1nc2cc(C)ccc2cc1CN(C)Cc1n[nH]c2c1CCCC2` | 2.274 | 12.11 | 14.81 |
| `O=C(CN(Cc1cccs1)C1CCS(=O)(=O)C1)NC1CCCCC1` (centres undefined) | -15.12 | 6.516 | -15.89 |
| `O=C(CCc1cc(F)ccc1F)NS(=O)(=O)c1ccc2c(c1)OCCO2` | 3.488 | 14.61 | -10.16 |
| `[H][C@]12CC[C@]([H])(CN(Cc3ccncc3)C1)N(C(=O)OC)C2` | -31.65 | - | - |
| `O=C(O)C(F)(F)F.O=C(O)C(F)(F)F.[H][C@@]12CN(C(=O)c3ccsc3)C[C@]1([H])OCCN2CCN1CCCC1` | -14.48 | - | -13.09 |
| `COc1ccc(-c2csc(N)c2C#N)cc1` | 13.69 | 5.152 | 31.9 |
| `O=C(c1ccco1)N1CCC2(CC1)CCN(c1ncccn1)CC2` | 3.558 | 4.482 | -22.71 |
| `COCC(=O)N1CCc2nc(C(=O)Nc3cccnc3)sc2CC1` | -1.152 | 16.06 | 25.06 |
| `CCc1noc(C(C)N2CCNCC2)n1` (centres undefined) | -0.2639 | 16.78 | - |
| `Cc1cccc(N(C)Cc2nc3c(cnn3C)c(=O)[nH]2)c1C` | 1.431 | 5.541 | -6.01 |
| `C1CCN(CCN2CCCCC2C2OCCO2)CC1` (centres undefined) | 4.099 | 14.02 | 10.52 |
| `Cn1cc(N2CC3(CCN(Cc4nccn4C)C3)CC2=O)cn1` (centres undefined) | - | 16.48 | - |
| `O=C(O)C(F)(F)F.[H][C@@]12CCCO[C@]1([H])[C@H](OCc1cccnc1)CN2C(=O)C1CC=CC1` | -28.69 | - | 8.448 |
| `Cc1cc(C)nc(C2CCCN2C(=O)c2cnco2)n1` (centres undefined) | 5.729 | 3.675 | -9.332 |
| `CNCc1n[nH]c(=O)n1CC1CCCCC1` | 18.56 | 7.902 | -8.101 |
| `Cn1cc(CN2CC[C@]3(C[C@H](Oc4ccccn4)CO3)C2)cn1.O=C(O)C(F)(F)F.O=C(O)C(F)(F)F` | 21.89 | - | -5.713 |
| `c1ccc(N2CCC3(COCCN(Cc4cccs4)C3)C2)nc1` (centres undefined) | - | 13.78 | - |
| `CC(C)Cc1cc(C(=O)NCC(O)CN2CCCCCC2)on1` (centres undefined) | -12.74 | 16.2 | -1.436 |
| `O=C(c1ccoc1)N1CCC2(C1)CN(c1ncccn1)C2` | -14.56 | 14.81 | 23.93 |
| `CN(Cc1ccco1)C(=O)[C@@]12CNC[C@@H]1CN(C1CCCC1)C2` | - | 14.09 | - |
| `Cc1ccc(CN2CCOC3(CCN(C(=O)C4CCOC4)CC3)C2)cc1.O=C(O)C(F)(F)F` (centres undefined) | 8.981 | - | 20.31 |
| `[H][C@]12CC[C@]([H])(CN(S(C)(=O)=O)C1)N(C/C=C/c1ccc(F)cc1)C2` | -37.55 | - | - |
| `O=C(CCN1C[C@H]2CC[C@@H]1CN(c1ncccn1)C2)NCc1ccco1` | - | 8.696 | - |
| `Cc1nc(C)n(CC(C)C(=O)N2CCCN(C3CCCC3)CC2)n1` (centres undefined) | -1.044 | 9.804 | 16.18 |
| `CCC1CN(c2cnn(C)c(=O)c2Br)CCO1` (centres undefined) | 18.31 | 5.319 | -9.375 |
| `Nc1cc(-c2cccs2)nn(CC(=O)NCC2CCCCC2)c1=O` | 4.134 | 1.942 | 91.2 |
| `CNS(=O)(=O)c1ccc(CNC(=O)N(C)CC(C)C)cc1` | -9.616 | 15.57 | 18.22 |
| `CN(Cc1cccnc1)C[C@H]1OC[C@@H]2CCN(C(=O)C3CC3)C[C@@H]21` | - | 15.13 | - |
| `O=C(c1ccc(-n2ccnc2)nc1)N1CCN2CCCCC2C1` (centres undefined) | 0.222 | 16.19 | 27.1 |
| `CC(C)N(C)Cc1cnc2n1CCN(C(=O)Cc1ccsc1)C2` | - | 12.88 | - |
| `O=C(O)C(F)(F)F.[H][C@]12CCC[C@@]1(COCc1ccncc1)CN(C(=O)CS(C)(=O)=O)C2` | 41.41 | - | -4.163 |
| `COc1cccc(C(=O)C2CCCN(c3nccc(N)n3)C2)c1` (centres undefined) | -13.07 | 21.25 | -10.96 |
| `CC(=O)N(C)Cc1ccccc1NCc1c(C)noc1C` | -0.4572 | - | - |
| `CC(C)Cc1ccc(S(=O)(=O)NCCCN2CCNC(=O)C2)cc1` | -8.186 | 17.87 | 26.38 |
| `Cc1ccc(CN2C[C@H]3OC(=O)N(Cc4ccccn4)[C@H]3C2)o1` | - | 5.974 | - |
| `O=C(c1ccno1)N1CCC2(CC(=O)N(c3ccc4c(c3)OCO4)C2)C1` (centres undefined) | 3.151 | -4.261 | -30.44 |
| `Cc1ccc(C(=O)CC(SC2CCCCC2)C(=O)O)cc1` (centres undefined) | 42.62 | 7.547 | 44.78 |
| `CN1CCC(CCNC(=O)c2ccc(N(C)S(C)(=O)=O)cc2Cl)CC1` | 5.806 | 4.724 | 9.563 |
| `COCCNC(=O)N1CCCC(COc2ccccc2)C1` (centres undefined) | 9.046 | 13.67 | 32.08 |
| `CCOCC(O)CN1CCN(C(=O)c2cccnc2OC)CC1` (centres undefined) | 9.183 | 8.502 | 9.652 |
| `Cc1ccc(C)c(OCc2nnc(SCC3CCCN(C)C3)o2)c1` (centres undefined) | -40.69 | 23.18 | 1.74 |
| `COCc1noc(-c2ccc(N3CCCCC3CO)nc2)n1` (centres undefined) | -14.16 | 9.63 | 26.76 |
| `COc1ccccc1CCc1nc(CC2CCN(C)CC2)no1` | -16.16 | 10.05 | -40.73 |
| `O=C(COC1CCCC1)NC(C(=O)Nc1cc[nH]n1)c1ccccc1` (centres undefined) | -0.488 | 12.57 | 10.66 |
| `COC(=O)N1CCCC(C(=O)NCCc2c[nH]c3cc(C)ccc23)C1` (centres undefined) | -3.398 | 12.83 | 21.3 |
| `Cc1cc(C(F)(F)F)nc(CNC(=O)C2CCCCCN2C)n1` (centres undefined) | -8.3 | 0 | 30.16 |
| `Cl.Cl.O=C(NCc1cncc2c1CCN(C1CCOCC1)C2)c1ccco1` | 7.016 | - | 9.822 |

Repeated from the top, 5 entries:

For CNS(=O)(=O)c1ccc(C(=O)NCc2ccnc(OC)c2)cc1 the result was A: 6.306%; B: 10.97%; C: 3.013%.
For CC(C)OCC(=O)Nc1ccc(Oc2ccc3c(c2)OCO3)nc1 the result was A: 3.681%; B: 16.49%; C: 31.06%.
For Cc1nc(CN2CCCN(CC(=O)N(C)C(C)(C)C#N)CC2)no1 the result was A: -24.57%; B: 2.717%; C: -27.86%.
For Cc1cc(CN2C[C@@H]3CCCO[C@@H]3[C@H](NS(C)(=O)=O)C2)no1 the result was B: 8.148%.
For CCc1nc(CNC(=O)c2ccc(C(C)N3CCCCC3)o2)cc(=O)[nH]1 (centres undefined) the result was A: -20.78%; B: 1.344%; C: 15.08%.